# Measured values reported in US20070213310A1, “Prodrugs for Use as Ophthalmic Agents” (priority 2002, published 2007).
# Some entries share one result that the patent states for a list of compounds.
# Test system: heterozygous S334ter rhodopsin mutation transgenic rats
# Assay: Protection of retinal outer nuclear layer in retinitis pigmentosa model
# Format: in vivo, rats (Sprague-Dawley parental)
# Details: 10 mM, intravitreal injection; vehicle 1-2 layers
row,SMILES,ONL layers protected
1,"C[C@]12CC[C@H]3[C@@H](CCC4=CC(=O)C(C56CC7CC(CC(C7)C5)C6)=C[C@@]43O)[C@@H]1CC[C@@H]2O [2-(1-adamantyl)-10β,17β-dihydroxyestra-1,4-dien-3-one]",3-5 ONL layers
2,"C[C@]12CC[C@@H]3c4cc(C56CC7CC(CC(C7)C5)C6)c(O)cc4CC[C@H]3[C@@H]1CC[C@@H]2O [2-(1-adamantyl)-estra-1,3,5(10)-triene-3,17β-diol]",3-5 ONL layers
